Data as given in PubChem BioAssay AID504764 (Drosophila RNAi Screening Center, 2011)

- Aim: 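Genome-wide screen for regulators of Notch-driven gene expression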 (primary screen)
- System: Drosophila Kc167 cells
- Reagent: long dsRNA against Drosophila genes
- Time to read-out: about 5 days (4 days dsRNA, then 24 h after transfection)
- Challenge: transfection of constitutively active membrane-tethered Notch lacking the extracellular domain, read 24 h later
- Read-out: 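Firefly luciferase from an E(spl)m3 reporter with active Notch, plus control-promoter and uninduced reporter wells for normalisation; unnormalised counts, duplicate wells a and b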
- Scale: induced reporter light, run 1, well a and induced reporter light, run 1, well b: higher = more light from the Notch target reporter with active Notch; control promoter light, run 1, well a and control promoter light, run 1, well b: higher = more light from the viral control promoter (cell number, transfection, viability); uninduced reporter light, run 1, well a: higher = more light from the Notch target reporter without active Notch
- Rule for the call: 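Hit if the duplicate-averaged log2 ratio of induced to control-promoter light gives a plate-wise z beyond ±2, or induced to uninduced beyond ±1.8; weak-control or discordant-duplicate wells dropped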
- Meaning of the calls: active = modifier hit (raised or lowered Notch signal); inactive = not a hit
In all, the deposit lists about 22,000 reagents; shown is a random part of those with a known target gene and a result. In the full data, 403 (1.9%) are marked active. 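Unnormalised raw counts per well; ratio z-scores behind the hit calls and whether each hit raises or lowers signal are not deposited.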 Reagents against one gene are numbered here. The record does not give: the amount of reagent.

predicted target	reagent	induced reporter light, run 1, well a	induced reporter light, run 1, well b	control promoter light, run 1, well a	control promoter light, run 1, well b	uninduced reporter light, run 1, well a	Call
Nup160	1	65110	90735	46725	57875	8495	inactive
egg	1	1.46e5	1.45e5	1.39e5	1.52e5	11950	inactive
Jhbp2	1	1.33e5	1.06e5	1.18e5	1.08e5	11188	inactive
CG18327	1	96530	1.10e5	1.12e5	1.23e5	8930	inactive
Ndf	1	2.11e5	1.86e5	1.84e5	1.76e5	12770	inactive
5-HT2B	1	79815	89470	59105	55380	5340	inactive
5-HT2B	2	73150	86005	75410	57630	4670	inactive
CG6357	1	1.61e5	1.59e5	1.62e5	1.53e5	13640	inactive
CG11598	1	6700	7940	8890	7105	645	inactive
CG34452	1	1.61e5	2.11e5	2.64e5	2.87e5	19205	inactive
CG15731	1	51625	52710	58260	46930	4565	inactive
Mcr	1	2.18e5	2.16e5	2.34e5	2.51e5	20725	inactive
mRpL39	1	1.64e5	1.59e5	2.28e5	2.25e5	6335	inactive
Cpr35B	1	1.46e5	1.64e5	1.27e5	1.40e5	12055	inactive
CG14253	1	1.81e5	1.47e5	2.26e5	1.99e5	15088	inactive
qm	1	2.56e5	2.36e5	2.76e5	3.08e5	12255	inactive
CG9098	1	1.72e5	1.81e5	1.74e5	1.84e5	15140	inactive
CG3330	1	51630	69860	55950	55310	3870	inactive
CG12099	1	97540	1.09e5	1.79e5	2.39e5	10640	active
Taf12	1	1.00e5	1.29e5	57605	47630	6245	inactive

Laid out differently: results already given
Mcr: induced reporter light, run 1, well a = 2.18e5; induced reporter light, run 1, well b = 2.16e5; control promoter light, run 1, well a = 2.34e5; control promoter light, run 1, well b = 2.51e5; uninduced reporter light, run 1, well a = 20725; Call = inactive
mRpL39: induced reporter light, run 1, well a = 1.64e5; induced reporter light, run 1, well b = 1.59e5; control promoter light, run 1, well a = 2.28e5; control promoter light, run 1, well b = 2.25e5; uninduced reporter light, run 1, well a = 6335; Call = inactive
